Test system: NOS
Details: gamete homogenates; ornithine 1.5 mM, nitro-L-arginine 100 μM

NCCC[C@H](N)C(=O)O [ornithine]
effect on citrulline conversion activity: no inhibition

Reference: patent publication US6737272B2, “Methods for modulation of oocyte activation” (The Board of Trustees of the Leland Stanford Junior …, priority 1999, dated 2004)
